These are yes or no findings as the source states them, for the method shown. Some entries that bind do so weakly or less than the wild type.
Columns and labels:
Settings in all cases: remark: other sources report otherwise
[1] = target: chicken lysozyme (chicken), P00698; assay: column of lysozyme immobilised on Eupergit, A280 of bypass and flow through, release with CAPS buffer pH 11
[2] = target: chicken lysozyme (chicken), P00698; assay: column of iMab100 immobilised on Eupergit, A280 of bypass and flow through, release with CAPS buffer pH 11
[3] = target: chicken lysozyme (chicken), P00698; assay: ELISA on lysozyme against ELK control

Measured: binding

B1: iMab100 (designed binder, not shown: small tags and cut ends)
chain: NVKLVEKGGNFVENDDDLKLTCRAEGYTIGPYCMGWFRQAPNDDSTNVATINMGGGITYYGDSVKERFDIRRDNASNTVTLSMDDLQPEDSAEYNCAGDSTIYASYYECGHGLSTGGYGYDSHYRGQGTDVTVSS
binds: all assays above

From patent publication US20060140889A1
